Reference: publication PMC12378768
Results are given in words; binding and its absence hold for the method and conditions named. In cells and extracts the contact can be indirect. Some results given as binding are weak or reduced against the parent protein; the word gives no strength. Where a sequence is shown, tags or fusion partners need not be part of it.

By UniProt entry, the sequences of proteins in these tests, tags left out.
UniProt P35222: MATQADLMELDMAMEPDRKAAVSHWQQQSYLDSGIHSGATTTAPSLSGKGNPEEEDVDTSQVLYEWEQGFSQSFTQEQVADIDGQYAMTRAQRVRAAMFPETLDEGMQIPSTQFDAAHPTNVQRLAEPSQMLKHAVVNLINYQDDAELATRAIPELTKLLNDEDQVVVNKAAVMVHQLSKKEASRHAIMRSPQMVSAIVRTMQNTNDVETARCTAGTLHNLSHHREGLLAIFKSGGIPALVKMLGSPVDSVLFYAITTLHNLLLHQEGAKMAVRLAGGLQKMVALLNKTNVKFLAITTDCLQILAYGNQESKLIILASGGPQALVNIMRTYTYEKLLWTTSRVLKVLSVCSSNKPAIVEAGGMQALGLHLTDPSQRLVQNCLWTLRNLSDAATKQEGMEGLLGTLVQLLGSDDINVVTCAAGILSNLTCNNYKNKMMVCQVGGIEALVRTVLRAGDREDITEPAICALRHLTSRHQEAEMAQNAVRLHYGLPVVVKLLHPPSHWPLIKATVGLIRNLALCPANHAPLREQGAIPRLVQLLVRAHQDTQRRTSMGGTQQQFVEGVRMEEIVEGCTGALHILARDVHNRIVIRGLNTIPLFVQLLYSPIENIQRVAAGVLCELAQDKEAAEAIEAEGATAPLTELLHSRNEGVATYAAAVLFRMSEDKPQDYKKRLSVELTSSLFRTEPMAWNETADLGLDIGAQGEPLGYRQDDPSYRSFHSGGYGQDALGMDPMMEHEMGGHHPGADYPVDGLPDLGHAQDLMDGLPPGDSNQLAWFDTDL

Target: T1, HA-KCTD10, full length (UniProt Q9H3F6)
T1 sequence: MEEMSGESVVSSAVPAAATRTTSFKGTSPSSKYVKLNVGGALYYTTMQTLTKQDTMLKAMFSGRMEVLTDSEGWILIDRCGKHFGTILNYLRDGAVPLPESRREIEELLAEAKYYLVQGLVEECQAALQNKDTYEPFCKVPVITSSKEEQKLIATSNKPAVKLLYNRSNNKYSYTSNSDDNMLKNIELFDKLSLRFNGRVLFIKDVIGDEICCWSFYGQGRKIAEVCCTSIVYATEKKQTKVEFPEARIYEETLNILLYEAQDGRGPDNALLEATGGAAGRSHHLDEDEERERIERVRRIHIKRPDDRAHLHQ
Test: co-IP; cells transfected with HA-KCTD10; whole cell extracts immunoprecipitated with anti-tag antibody and protein A/G beads; endogenous β-catenin detected by blot; rabbit preimmune IgG as negative control

binding: binds
Substance: β-catenin (cadherin-associated protein, beta 1), endogenous (from UniProt P35222 1-781)
